Some test systems named below: CS (human); CSF1 (human); CST2 (human); CST4 (human); CST7 (human); CTBP1 (human); CTBP2 (human); CTDSP1 (human); CTNNA3 (human); CTNNB1 (human); CTSC (human); CTSE (human); CTXN1 (human); CXCL3 (human); CYB5B (human).
What all share (assay): protein microarray (ProtoArray v5.0), streptavidin-Alexa Fluor 647
Conditions in all cases: 3'-biotin; 20 mM Tris (pH 7.5), 5 mM MgCl2, 100 mM KCl, 0.1% Tween-20, A/T-rich and random oligonucleotide blockers; temperature not stated; high values mean tight binding

By UniProt entry, the sequences of proteins in these tests, tags left out. Where a name states a change or a piece, a line headed by the entry shows the natural chain unless it says otherwise.
UniProt P68400: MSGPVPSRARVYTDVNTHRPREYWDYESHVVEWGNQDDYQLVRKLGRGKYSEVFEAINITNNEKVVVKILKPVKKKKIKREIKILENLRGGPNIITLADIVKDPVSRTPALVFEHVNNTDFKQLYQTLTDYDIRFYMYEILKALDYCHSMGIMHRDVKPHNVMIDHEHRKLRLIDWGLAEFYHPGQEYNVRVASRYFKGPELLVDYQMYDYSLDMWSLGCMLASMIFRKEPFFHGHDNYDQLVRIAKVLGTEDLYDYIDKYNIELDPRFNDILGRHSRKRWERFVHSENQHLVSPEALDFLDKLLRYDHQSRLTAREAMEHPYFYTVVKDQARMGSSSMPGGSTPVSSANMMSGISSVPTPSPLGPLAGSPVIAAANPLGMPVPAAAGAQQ
UniProt P42830, whole entry: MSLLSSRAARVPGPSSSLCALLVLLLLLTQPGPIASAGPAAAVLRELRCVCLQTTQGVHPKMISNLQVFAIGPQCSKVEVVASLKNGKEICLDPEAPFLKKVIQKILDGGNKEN

The target in a further assay is T1, CSAG1 (UniProt Q6PB30).
T1 sequence: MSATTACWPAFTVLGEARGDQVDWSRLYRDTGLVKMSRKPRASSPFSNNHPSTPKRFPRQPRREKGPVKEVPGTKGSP

The target of another assay is CSNK2A1 (UniProt P68400).
The target in another assay is T2, CT47.11 (UniProt Q5JQC4).
T2 sequence: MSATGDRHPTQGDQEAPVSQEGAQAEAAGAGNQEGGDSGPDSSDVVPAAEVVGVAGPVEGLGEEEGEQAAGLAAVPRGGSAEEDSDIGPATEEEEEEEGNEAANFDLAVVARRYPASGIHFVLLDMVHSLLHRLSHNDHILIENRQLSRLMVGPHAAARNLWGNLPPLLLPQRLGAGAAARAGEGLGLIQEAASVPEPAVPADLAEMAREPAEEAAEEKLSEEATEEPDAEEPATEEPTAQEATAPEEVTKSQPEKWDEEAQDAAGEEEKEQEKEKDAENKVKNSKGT

Assay [1] has as its system CTD small phosphatase-like protein (human).
A further assay deals with CXCL5 (UniProt P42830).

The source of these data is paper PMC5996148.

Where “and” joins values, the source holds several entries; their conditions need not be identical. Identical values can stand only once. Some of the results follow. For some assays here: The source does not settle which construct or isoform was used.

Take “GGGAGGCTGAGGCAGG [G4-1 biotinylated (PQS2)]”: the binding signal was -0.294 z-score in the assay on CS (human); 4.93 z-score in the assay with CSAG1; -0.342 z-score in the assay with CSF1 (human); 5.06 z-score and 6.1 z-score in the assay with CSNK2A1; -0.324 z-score in the assay with CST2 (human); -0.307 z-score in the assay on CST4 (human). The binding signal was -0.323 z-score in the assay on CST7 (human); -0.299 z-score with CT47.11; -0.351 z-score and -0.354 z-score with CTBP1 (human); -0.319 z-score with CTBP2 (human); -0.326 z-score in [1]; -0.317 z-score with CTDSP1 (human). In addition, the binding signal is -0.326 z-score in the assay with CTNNA3 (human); -0.36 z-score with CTNNB1 (human); -0.342 z-score in the assay on CTSC (human); -0.323 z-score in the assay with CTSE (human); -0.319 z-score with CTXN1 (human); -0.276 z-score with CXCL3 (human). Also, the binding signal with CXCL5 is -0.332 z-score; in the assay with CYB5B (human), -0.346 z-score.
